Measurements: patent US20230146870A1, “METHOD TO QUANTIFY AFFINITY AND SELECTIVITY OF SMALL MOLECULES FOR PROTEINS IN LIVING CELLS” (Ohio State Innovation Foundation, priority 2021, published 2023)

Test system: HEK293 cells (parental or overexpressing full-length PKCγ-EGFP)
Experiment: Cellular fluorescence of probe 33 with and without verapamil by flow cytometry (efflux)
Type: cell-based
Details: for enhancement of cellular blue fluorescence by verapamil: HEK293 overexpressing PKCγ-EGFP; for enhancement of intracellular fluorescence by verapamil: parental HEK293, 33 at 1 μM, 1 h

Compound: CC1=C[C@H]2[C@@]3(O)[C@H](C)[C@@H](O)[C@]4(OC(=O)N(C)CCCCCCCCCCCCN(C)C(=O)c5cc6cc(F)c(O)c(F)c6oc5=O)[C@H]([C@@H]3C=C(CO)C[C@]2(O)C1=O)C4(C)C [probe 33, (1aR,1bS,4aR,7aS,7bS,8R,9R,9aS)-4a,7b,9-trihydroxy-3-(hydroxymethyl)-1,1,6,8-tetramethyl-5-oxo-1,1a,1b,4,4a,5,7a,7b,8,9-decahydro-9aH-cyclopropa[3,4]benzo[1,2-e]azulen-9a-yl (12-(6,8-difluoro-7-hydroxy-N-methyl-2-oxo-2H-chromene-3-carboxamido)dodecyl)(methyl)carbamate]
- enhancement of cellular blue fluorescence by verapamil (verapamil 25 μM): 2.0 fold
- enhancement of cellular blue fluorescence by verapamil (verapamil 100 μM): 3.3 fold
- enhancement of intracellular fluorescence by verapamil (verapamil 25 μM): 2.8 fold
- enhancement of intracellular fluorescence by verapamil (verapamil 100 μM): 3.5 fold
- blue fluorescence of cells over-expressing PKCγ-EGFP vs cells with no expression (verapamil 100 μM): 2.7 fold
